These are yes or no findings as the source states them, for the method shown. Some binding calls cover weakened binding; strength is not graded here.
Target: G-protein-coupled receptor promoting fungal in planta expansion 1 (Gpe1) (Ustilago maydis)
Assay: SDS-PAGE and anti-HA Western blot

Amino acid sequences for entries named in this document (tags omitted).
UniProt A0A0D1E6B3: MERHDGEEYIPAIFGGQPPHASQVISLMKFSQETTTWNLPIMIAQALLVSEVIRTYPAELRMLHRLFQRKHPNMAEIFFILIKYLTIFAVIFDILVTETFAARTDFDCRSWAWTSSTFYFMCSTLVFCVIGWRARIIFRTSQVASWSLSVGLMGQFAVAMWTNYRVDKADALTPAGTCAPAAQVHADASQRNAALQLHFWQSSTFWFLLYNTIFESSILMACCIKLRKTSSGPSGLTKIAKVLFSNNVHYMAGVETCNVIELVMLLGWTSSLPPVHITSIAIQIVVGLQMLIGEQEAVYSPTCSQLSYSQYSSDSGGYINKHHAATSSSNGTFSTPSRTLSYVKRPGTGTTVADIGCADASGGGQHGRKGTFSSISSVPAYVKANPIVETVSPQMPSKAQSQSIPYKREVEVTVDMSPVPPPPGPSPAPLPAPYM

G-protein-coupled receptor promoting fungal in planta expansion 1 (Gpe1) (from UniProt A0A0D1E6B3 1-435)
binding: binds

From doi:10.1101/2025.09.26.678928
